These are yes or no findings as the source states them, for the method shown. Binding seen in cells or lysates may run through a third protein. Some binding calls cover weakened binding; strength is not graded here. One block for each binder: values may come before it.
What was measured:
[1] = target: T1, podocin (mouse (endogenous in TM4)) (UniProt Q91X05); experiment: co-IP; whole-cell lysates of TM4 cells, precleared with protein G-plus-agarose beads at 4°C for 1 hour; immunoprecipitated with antipodocin or nephrin antibody and blotted with antinephrin or podocin antibody, respectively
T1 sequence: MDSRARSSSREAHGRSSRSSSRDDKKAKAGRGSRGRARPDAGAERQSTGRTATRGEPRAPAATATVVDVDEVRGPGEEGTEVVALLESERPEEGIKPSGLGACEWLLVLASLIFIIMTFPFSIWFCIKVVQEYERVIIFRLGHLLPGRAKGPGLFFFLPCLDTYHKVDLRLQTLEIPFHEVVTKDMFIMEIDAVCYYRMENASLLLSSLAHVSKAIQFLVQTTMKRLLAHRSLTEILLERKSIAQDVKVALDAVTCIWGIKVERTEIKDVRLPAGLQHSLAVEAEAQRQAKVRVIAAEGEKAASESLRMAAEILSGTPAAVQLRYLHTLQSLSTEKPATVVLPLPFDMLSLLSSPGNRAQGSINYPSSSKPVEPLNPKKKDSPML

[2] = target: T2, nephrin (mouse (endogenous in TM4)) (UniProt Q9QZS7); experiment: as above
T2 sequence: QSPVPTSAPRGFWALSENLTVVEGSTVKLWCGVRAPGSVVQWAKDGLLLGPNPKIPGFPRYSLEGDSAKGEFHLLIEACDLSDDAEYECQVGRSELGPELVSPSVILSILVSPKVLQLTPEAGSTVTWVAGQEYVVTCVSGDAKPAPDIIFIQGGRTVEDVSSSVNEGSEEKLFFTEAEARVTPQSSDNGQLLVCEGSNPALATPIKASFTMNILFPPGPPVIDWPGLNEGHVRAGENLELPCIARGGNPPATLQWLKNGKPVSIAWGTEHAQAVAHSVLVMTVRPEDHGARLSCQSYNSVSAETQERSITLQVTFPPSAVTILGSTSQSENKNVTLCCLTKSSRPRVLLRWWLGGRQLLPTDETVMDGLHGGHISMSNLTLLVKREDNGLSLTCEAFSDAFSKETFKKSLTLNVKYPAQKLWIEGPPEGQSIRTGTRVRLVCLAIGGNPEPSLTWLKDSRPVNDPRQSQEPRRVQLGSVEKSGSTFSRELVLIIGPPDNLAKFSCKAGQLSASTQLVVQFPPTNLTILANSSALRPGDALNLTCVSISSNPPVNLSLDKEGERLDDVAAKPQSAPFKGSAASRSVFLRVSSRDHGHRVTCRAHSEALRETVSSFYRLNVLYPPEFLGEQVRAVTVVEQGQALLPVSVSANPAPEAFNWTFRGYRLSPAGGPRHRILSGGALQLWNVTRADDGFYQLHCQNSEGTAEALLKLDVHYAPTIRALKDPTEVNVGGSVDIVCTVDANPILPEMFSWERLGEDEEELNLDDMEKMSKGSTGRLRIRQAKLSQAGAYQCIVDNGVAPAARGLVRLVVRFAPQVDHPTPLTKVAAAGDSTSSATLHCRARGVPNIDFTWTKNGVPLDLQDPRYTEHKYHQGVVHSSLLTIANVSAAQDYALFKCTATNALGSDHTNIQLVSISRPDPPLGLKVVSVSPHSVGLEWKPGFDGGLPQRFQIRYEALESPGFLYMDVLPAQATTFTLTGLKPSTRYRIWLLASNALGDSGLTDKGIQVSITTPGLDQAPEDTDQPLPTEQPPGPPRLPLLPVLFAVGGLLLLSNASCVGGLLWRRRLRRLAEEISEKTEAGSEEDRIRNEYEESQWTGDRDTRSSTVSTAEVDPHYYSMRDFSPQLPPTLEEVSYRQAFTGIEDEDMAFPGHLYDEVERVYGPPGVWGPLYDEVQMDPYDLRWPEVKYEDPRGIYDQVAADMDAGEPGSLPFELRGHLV

binding [1]: binds
B1: nephrin (protein, UniProt Q9QZS7 37-1256)
chain: T2 sequence

binding [2]: binds
B2: podocin (protein, UniProt Q91X05 1-385)
chain: T1 sequence
